Experimental data: PubChem BioAssay AID2685 (National Center for Advancing Translational Sciences (NCATS), 2010)
The list shows a part of the results. The main result of the screen is listed elsewhere. These columns were measured beside it and carry no call. Most of these compounds were active or inconclusive in the main read-out, so they are no random draw. Potencies come from curve fits of mixed quality, noted in brackets.

Assay: qHTS Assay for Lipid Storage Modulators in Drosophila S3 Cells;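 for cell number change: cells counted by Cell Tracker Red CMTPX staining in the red channel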
Conditions: BODIPY lipid droplet fluorescence, 18-24 h; for cell number change: measured here: cell count max response, cells fed with added oleic acid
In short: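 Drosophila S3 cells got compounds at several concentrations plus oleic acid (400 uM solution). Laser-scanning cytometry with 488 nm excitation read lipid droplets at 500-530 nm and cells at 575-640 nm. Percent activity was relative to 20 uM Triacsin C.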

[1] = measured here: cell number channel AC50, cells fed with added oleic acid
[2] = measured here: lipid fluorescence (Fed channel) AC50, cells fed with added oleic acid

Row | SMILES | cell number change [%] | AC50 [1] | AC50 [2]
1 | CN1CCN(c2ccc(NC(=O)c3ccc(C(F)(F)F)cc3)cn2)CC1 | 24.9 | – | –
2 | Cc1cc(C)c(COc2ccc(/C=N/n3c(C)n[nH]c3=S)cc2)c(C)c1 | -51 | 20.6 µM [falling, single point] | 0.517 µM [falling, single point]
3 | Oc1c(Br)cc(Cl)cc1C=Nc1ccccc1Br | -8.79 | – | 0.92 µM [falling, full curve, poor fit]
4 | O=S(=O)(c1ccc(F)c(F)c1)N1CCCc2ccccc21 | -0.901 | – | –
5 | COc1ccc(-c2nnn(CC(=O)N(CCN3CCOCC3)C(C(=O)NC3CCCCC3)c3ccco3)n2)cc1 (centres undefined) | 22.7 | – | 0.00731 µM [rising, full curve, poor fit]
6 | CCN(CCCNC(=O)COc1cc(=O)n(CC)c2ccccc12)Cc1ccccc1 | – | – | 0.731 µM [falling, single point]
7 | O=C(Nc1ccnc(-c2cccnc2)n1)c1ccccc1Cl | 14.3 | – | 29.1 µM [rising, single point]
8 | CCN1CCN(C(C(=O)NC2CCCC2)c2cc3c(cc2[N+](=O)[O-])OCO3)CC1 (centres undefined) | – | – | 0.731 µM [rising, single point]
9 | COc1ccc(C(=O)NCC(=O)OCC(=O)N2CCC(C)CC2)cc1OC | 27.3 | – | 29.1 µM [falling, single point]
10 | COCC1CCCN(Cc2nc(-c3ccc4c(c3)OCO4)no2)C1 (centres undefined) | 22.1 | – | –
11 | CC(Oc1ccccc1F)C(=O)NNC(=O)c1ccc(F)c(S(=O)(=O)N2CCOCC2)c1 (centres undefined) | -0.85 | 0.13 µM [falling, full curve, poor fit] | 6.51 µM [falling, single point]
12 | COC(=O)CN1C(=O)[C@H]2[C@@H](/C=C/c3ccccc3)N3C(=O)CN(Cc4ccccc4)C(=O)[C@@]3(C)[C@H]2C1=O | 23.7 | – | –
13 | Oc1cccnc1SCc1ccccc1 | – | – | 0.116 µM [rising, full curve, poor fit]
14 | O=C(O)Cc1ccc2oc(-c3cccnc3)nc2c1 | 17.4 | 2.59 µM [rising, single point] | 6.51 µM [rising, single point]
15 | O=C(COc1ccc(S(=O)(=O)N2CCc3ccccc32)cc1Cl)NCc1ccccn1 | -43.7 | 25.9 µM [falling, single point] | 1.3 µM [rising, partial curve]
16 | O=C(O)c1cnn2c1C(=O)N(Cc1cccs1)CC2 | -33.5 | 5.8 µM [falling, full curve, poor fit] | 5.17 µM [falling, full curve]
17 | Cc1ccc(SCc2cn3cccnc3n2)cc1 | -12.6 | – | 32.6 µM [rising, single point]
18 | COc1ccc(CNC(=O)[C@H](C)N2C(=O)N3CCc4c([nH]c5ccc(OC)cc45)[C@@]3(C)C2=O)cc1 | 8.62 | – | –
19 | COc1cccc(N2CC(C(=O)Nc3nnc(SCC(=O)Nc4cc(C)on4)s3)CC2=O)c1 (centres undefined) | -21.6 | – | –
20 | COc1cccc(C(=O)N(CN2CCCC2=O)c2ccccc2OC)c1 | 13.7 | – | –
21 | Cc1sc2ncnc(N3CCC(C(=O)NNC(=O)COc4cccc(C(F)(F)F)c4)CC3)c2c1C | 75 | 23.1 µM [rising, single point] | –

Row | SMILES | cell number change [%] | AC50 [1] | AC50 [2]
22 | O=C(Nc1ccccc1)c1cccc(N2CCCC2=O)c1 | -23 | – | 20.6 µM [rising, single point]
23 | COc1ccccc1CNC(=O)COC(=O)c1ccc([N+](=O)[O-])o1 | – | – | 0.58 µM [falling, single point]
24 | O=C(NCc1ccccc1)c1ccc(NC(=O)C2CCCO2)cc1 (centres undefined) | – | – | 1.64 µM [falling, partial curve]
25 | COc1ccccc1OCCNC(=O)c1ccc(C)o1 | 10.2 | – | 4.61 µM [rising, single point]
26 | COCC(=O)N1CCC(Oc2ccc(C(=O)N3C[C@@H](C)O[C@@H](C)C3)cc2)CC1 | -21.5 | 0.731 µM [falling, full curve] | –
27 | CCn1ncc(C2=NOC(C(=O)NCCc3ccccc3)C2)c1C (centres undefined) | 56.1 | 23.1 µM [rising, partial curve] | –
28 | CCCn1c(Cc2ccccc2)nnc1SC(C)C(=O)NC1CC1 (centres undefined) | 14.6 | 0.58 µM [falling, single point] | 29.1 µM [rising, partial curve, poor fit]
29 | COc1cccc(NC(=O)NCc2ccc(F)cc2)c1 | – | 6.51 µM [rising, single point] | 6.51 µM [rising, single point]
30 | CCSc1nsc(SCC)c1C(N)=O | -5.75 | – | 0.103 µM [falling, full curve, poor fit]
31 | COc1ccc(NC(=O)CC(NC(C)c2ccccc2)C(=O)O)cc1 (centres undefined) | -16.4 | – | 29.1 µM [rising, single point]
32 | Cc1cc(C(=O)COC(=O)C2=NNC(=O)CC2)c(C)n1CCc1ccccc1 | -66.5 | 0.116 µM [falling, full curve, poor fit] | 29.1 µM [falling, single point]
33 | Cc1ccc(NC(=O)c2cc(C)no2)cc1 | 19.8 | – | –
34 | CCOC(=O)NC(Nc1ccc(C)cn1)(C(F)(F)F)C(F)(F)F | -46.7 | 11.6 µM [falling, partial curve, poor fit] | 20.6 µM [falling, partial curve]
35 | COc1ccc(N2CCN(C(=O)CN(c3ccc(Br)cc3)S(C)(=O)=O)CC2)cc1 | 2.33 | – | 0.92 µM [rising, full curve, poor fit]
36 | CCN(Cc1ccccc1)C(=O)c1oc2ccc(S(=O)(=O)N3CCOCC3)cc2c1C | -31.5 | 13 µM [falling, partial curve, poor fit] | 2.31 µM [falling, partial curve]
37 | COc1ccc(CCn2nnnc2C(CC(C)C)N2CCC(C(N)=O)CC2)cc1OC (centres undefined) | -12.9 | – | –
38 | O=C(OCc1ccccc1Cl)c1cccnc1Cl | 20.1 | – | 0.731 µM [falling, single point]
39 | Clc1ccc2nc(-c3ccc(Cl)nc3)[nH]c2c1 | -45.7 | 29.1 µM [falling, single point] | 18.4 µM [falling, single point]
40 | O=C(Nc1ccccc1O)C(c1ccccc1)c1ccccc1 | -52.2 | 29.1 µM [falling, single point] | 16.4 µM [falling, single point]
41 | COc1ccc(OC)c(NC(=O)NC2CCCCCCC2)c1 | -2.6 | – | 2.31 µM [rising, full curve]
42 | O=C(OCC(=O)N1c2ccccc2Sc2ccccc21)c1ccc[n+]([O-])c1 | -21.4 | 0.00461 µM [falling, full curve, poor fit] | –

As entered above:
CCCn1c(Cc2ccccc2)nnc1SC(C)C(=O)NC1CC1 (centres undefined) | AC50 [1]: 0.58 µM [falling, single point]
COc1ccc(C(=O)NCC(=O)OCC(=O)N2CCC(C)CC2)cc1OC | cell number change [%]: 27.3
O=C(Nc1ccccc1O)C(c1ccccc1)c1ccccc1 | AC50 [2]: 16.4 µM [falling, single point]

(continued)

Row | SMILES | cell number change [%] | AC50 [1] | AC50 [2]
43 | COc1ccc(Oc2cc(C)c3ccccc3n2)cc1 | -41.1 | – | 5.8 µM [rising, partial curve]
44 | COc1ccc(CCC2(C)NC(=O)NC2=O)cc1 (centres undefined) | -2.58 | – | 0.517 µM [falling, single point]
45 | O=C(c1cccc(Cl)c1)N1CCN(S(=O)(=O)c2ccc(Cl)s2)CC1 | -1.74 | – | 0.0103 µM [rising, full curve, poor fit]
46 | O=C(Nc1c(C(=O)Nc2cccc3ccccc23)cnn1-c1ccccc1)c1ccco1 | – | – | 14.6 µM [falling, single point]
47 | Cc1cc(-c2n[nH]c(=S)n2/N=C/c2cccs2)n[nH]1 | 15.5 | – | 0.0517 µM [rising, full curve, poor fit]
48 | CC1CCN(S(=O)(=O)c2ccc(NC(=O)[C@@H]3CCCC[C@@H]3C(=O)O)cc2)CC1 | 1.28 | – | –
49 | CC(C)C(C)(C#N)NC(=O)CSc1nnc(-c2ccccc2)o1 (centres undefined) | 25.5 | – | 0.00411 µM [rising, full curve, poor fit]
50 | Cc1ccnc(NC(=O)Nc2ccc3c(c2)N(C)C(=O)CS3)c1 | -0.11 | – | 0.58 µM [rising, single point]
51 | Cn1c(=O)c2c(nc(Sc3ncccn3)n2Cc2ccccc2Cl)n(C)c1=O | -42.1 | – | 29.1 µM [falling, single point]
52 | O=C(c1ccco1)N1CCC(c2nc(-c3ccccc3Cl)no2)CC1 | -1.65 | – | –
53 | COc1ccc(Br)c(C(=O)N2CCN(S(=O)(=O)/C=C/c3ccccc3)CC2)c1 | 13.8 | – | –
54 | CC(C)CN(CC(C)C)C(=O)c1cccc(S(=O)(=O)N2CCc3ccccc32)c1 | – | – | 29.1 µM [rising, single point]
55 | CN1C(=O)c2ccc(NC(=O)c3c(C(=O)O)cccc3[N+](=O)[O-])cc2C1=O | 4.96 | – | –
56 | CN(C)c1ccc(-c2nnn(CC(=O)Nc3ccccc3N3CCOCC3)n2)cc1 | 19.3 | 0.517 µM [rising, full curve, poor fit] | 3.66 µM [rising, full curve, poor fit]
57 | CCOC(=O)NC(C(Cl)(Cl)Cl)S(=O)(=O)c1ccccc1 (centres undefined) | -6.55 | – | 1.3 µM [rising, partial curve]
58 | Cc1ccc(/C=N/Nc2ccc3ccccc3n2)o1 | -74.2 | 7.31 µM [falling, partial curve] | –
59 | O=C(NCCCN1CCOCC1)NC1CCCCC1 | -6.36 | – | 1.03 µM [falling, full curve]
60 | COc1ccc(/C=N/NC(=O)CNC(=O)c2ccc(S(=O)(=O)N3CCOCC3)cc2)c(OC)c1 | 11 | – | –
61 | Cc1cc(C)c(C)c(N=Nc2nc3ccccc3n2C)c1C | -50.8 | 29.1 µM [falling, single point] | 29.1 µM [falling, single point]
